Laboratory results from patent publication US20240285586A1, “METHODS FOR TREATING BACTERIAL CELL POPULATIONS” (THE HONG KONG POLYTECHNIC UNIVERSITY, priority 2021, published 2024).

System: E. coli J53 (mcr-1)
Assay: MIC of colistin in presence and absence of compound, broth dilution
Type: cell-based, Escherichia coli
Settings: antibiotic resistant E. coli (FIG. 20)
Experimental: FIG. 20. […] The MICs of colistin in the presence and absence of Compound No. 1-23 against colistin-resistant E. coli was determined using broth dilution method according to the CLSI criteria of 2016.

Clc1ccc(CSC(Cn2ccnc2)c2ccc(Cl)cc2Cl)cc1 (stereo not shown) [sulconazole]
effect of co-administration with colistin: bactericidal synergistic effect
